Reference: the supplement of paper PMC5949888
Most values lie at the floor of the assay. Slopes are relative: functional sequences can read slightly below zero.

Test system: Saccharomyces cerevisiae PS128 hsf1 delta, HSF1(1-493) fusion
Assay: growth estimate (transactivation domain function in HSF1 fusion, heat-shock survival) (a.u. (slope of normalised read count over time)); higher = stronger growth at 37°C, i.e. more transactivation activity
Conditions: library: random library

Substance | growth estimate
SETSAPLHRRYLPRIKDIPL | < -0.25
SEV | -0.219
SEVCNGLVWWVVAGEGPVSG | < -0.25
SEWSIESAVLRPRRARWTGN | -0.243
SEWWLAMVSRWVPRARHATC | < -0.25
SFAHHYGYYRGQVF | < -0.25
SFASHRYRRSGVGRDNAPTR | < -0.25
SFCLSGRALHLSTGLDKRGR | < -0.25
SFCWW | < -0.25
SFDRRGVTCKCGS | < -0.25
SFDRS | < -0.25
SFESDGGCLSVSPRRCLASS | < -0.25
SFFKGRRLKVPLVIRSWLLT | < -0.25
SFFVPPRLSKVRFSTCGRVQ | < -0.25
SFG | < -0.25
SFGTVP | < -0.25
SFILTADRGG | < -0.25
SFIYRQSNSVEPGIQSLSPR | < -0.25
SFLPLSFGET | < -0.25
SFLS | < -0.25
SFMLPA | < -0.25
SFMTP | < -0.25
SFPVPHLWRLIGRRP | < -0.25
SFRERK | -0.176
SFRPRGSDMG | < -0.25

Substance | growth estimate
SFRPWGGLFFR | < -0.25
SFRS | < -0.25
SFSAKPFLRRYVRSD | < -0.25
SFSH | -0.132
SFSKRSTSVVIHAAGPCLMT | < -0.25
SFSRVDRSLHLSAQACSAPP | < -0.25
SFSYRLANMGHYQGFEAGWG | -0.211
SFTLCWRELMGIHAG | < -0.25
SFTTWGLKRASPENKFQRVT | < -0.25
SFWLIHFIFNRVLNAP | < -0.25
SFWQHGA | < -0.25
SFWRPDS | < -0.25
SGAIVNPFCAL | < -0.25
SGASEFR | < -0.25
SGCLKSLPGA | -0.229
SGCS | < -0.25
SGCSPQNSRRPAAKDILA | < -0.25
SGCVRPVIGSFMDNDYSTRL | < -0.25
SGDRITGGSPSRLLRVRPGL | < -0.25
SGE | < -0.25
SGEFRDSFPKRVGLLVLVPS | < -0.25
SGESHWLLAMTHH | < -0.25
SGFAVNTAARLHWGQGSYI | < -0.25
SGFGP | < -0.25
SGFRDVLPQHEHDLPRTYAQ | < -0.25

Substance | growth estimate
SGFVAVCDL | < -0.25
SGGEKLLIGRSTRKLDVKQL | < -0.25
SGGFQDHGGCSGYSRSKFNG | < -0.25
SGGPPDHVLCRLDIHS | < -0.25
SGGSRWKAVEGELKLIPMRR | < -0.25
SGGVS | < -0.25
SGHGKGLFTGAHRFAQCRGH | -0.106
SGHIDFCHDANAYGL | < -0.25
SGHIRYVP | < -0.25
SGIFISLMTVNVNGSFPEGG | < -0.25
SGKLVCVPIWRLVRRLGGIK | < -0.25
SGKNIKGQMYDRIMYPNYLS | < -0.25
SGKPRDGLRATRRSGGRPSR | < -0.25
SGKRVKSCLKFSWGPLISRV | < -0.25
SGLEKEQKLSQR | < -0.25
SGLFEVVYICSNRLLLLPHA | < -0.25
SGLGAEE | < -0.25
SGLHLNVRWCYGGSGC | < -0.25
SGLKRFS | < -0.25
SGLLCVA | < -0.25
SGLLGPSVNDCHTC | < -0.25
SGLNRDWIGQI | < -0.25
SGLPRVAALLKITGAASVSI | < -0.25
SGLRNPPASAVCTPGS | < -0.25
SGLSKSAAPIIGKQAEPSRL | < -0.25

Substance | growth estimate
SGLTQTSNRF | -0.248
SGLVCPDGGWVCRPSLSKLW | < -0.25
SGMLKSSDQVRPPGEDKSQA | < -0.25
SGNYANIS | < -0.25
SGPARGLWQSEDN | < -0.25
SGPGLVAGVSVS | < -0.25
SGPGMQE | < -0.25
SGPVRSFAIAHQRQVH | < -0.25
SGQEGQPLKLSAEHKSRRVS | < -0.25
SGRAKQECRNRSCHHFA | -0.25
SGRF | < -0.25
SGRGGRGSWSSSRTDAPGLV | < -0.25
SGRGSGPNDLVPEVSRPDVG | < -0.25
SGRQGRESSLYLEVNTKRTS | < -0.25
SGRRALDVSSRRVD | < -0.25
SGRRTRTIISRLVSFIMWKN | < -0.25
SGRSASSQEALRLDASRGRE | < -0.25
SGSATVLGEVGSGALQSVVG | < -0.25
SGSDRASGSCSSEPLGSRKG | < -0.25
SGSEWPPPLGSYAFPQHRWA | -0.243
SGSLPEYGGHL | < -0.25
SGT | < -0.25
SGTCPLWLNPADPIGGTGAM | -0.174
SGTGSSVRKRIVSFSS | < -0.25
SGTPVIYWSAKVVRRSMERR | < -0.25

In a second layout: entries from further up.
SGRRTRTIISRLVSFIMWKN
  growth estimate = < -0.25
SGRSASSQEALRLDASRGRE
  growth estimate = < -0.25
SGSATVLGEVGSGALQSVVG
  growth estimate = < -0.25
SGSDRASGSCSSEPLGSRKG
  growth estimate = < -0.25
